Earlier results, collected in patent US20100136106A1, “Modified Release Famciclovir Compositions” (priority 2005, published 2010).
The name of at least one read-out is uncertain.

Settings: capsule formulation of famciclovir with food

## Nc1nc2c(ncn2CCC(CO)CO)c(=O)[nH]1 [penciclovir]
  effect of food on extent of availability (AUC) of penciclovir: no effect
